The target in the assay is T1, FLAG-mouse FAM134B-2 (N-terminal-truncated isoform of FAM134B) (mouse) (UniProt Q8VE91).
T1 sequence: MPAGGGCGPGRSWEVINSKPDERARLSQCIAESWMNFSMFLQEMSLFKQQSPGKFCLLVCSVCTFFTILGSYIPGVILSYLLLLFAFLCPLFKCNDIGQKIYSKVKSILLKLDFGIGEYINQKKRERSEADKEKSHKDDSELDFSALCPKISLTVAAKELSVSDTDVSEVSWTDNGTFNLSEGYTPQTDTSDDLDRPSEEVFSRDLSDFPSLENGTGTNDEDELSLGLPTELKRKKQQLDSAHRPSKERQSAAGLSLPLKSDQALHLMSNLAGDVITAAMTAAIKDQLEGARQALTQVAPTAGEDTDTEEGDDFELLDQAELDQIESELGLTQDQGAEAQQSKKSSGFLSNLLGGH
The assay can be described thus: co-IP; lysates (2 mg) of transfected HEK293T cells starved with EBSS for 6 h with bafilomycin A1 (1 uM); anti-DYKDDDDK G1 affinity resin overnight at 4 °C; buffer 150 mM NaCl, 1% Nonidet P-40, 50 mM Tris pH 8.0; immunoblot.

Results are given in words; binding and its absence hold for the method and conditions named. Binding seen in cells or lysates may run through a third protein. Some entries that bind do so weakly or less than the wild type. Where a sequence is shown, tags or fusion partners need not be part of it.

The values below come from PMC6526285.

B1: GFP-ApoCIII (apolipoprotein C-III) (protein, UniProt P33622 21-99)
chain: EEVEGSLLLGSVQGYMEQASKTVQDALSSVQESDIAVVARGWMDNHFRFLKGYWSKFTDKFTGFWDSNPEDQPTPAIES
In the case of B1, the binding entry was “binds”.
